From PMC8458385, “Molecular basis for PICS-mediated piRNA biogenesis and cell division” (Nature Communications, 2021)
Positions count from the first letter of the chain named. Names may count otherwise. No constants are given. Whether binding was seen depends on the method and setting. For part of these data: Sequences can lack the tags named with a protein. One block for each binder: values may come before it.

How the values were obtained:
ERH-2 (C. elegans) [1] = molecular target: T1, ERH-2 (C. elegans) (UniProt Q20057); test: SEC; ERH-2 and TOFU-6^RRM mixed with PICS-1 constructs, Superose 6 Increase 10/300 GL, 20 mM Tris hydrochloride pH 8.5, 200 mM NaCl; fractions on SDS-PAGE; both purified
T1 sequence: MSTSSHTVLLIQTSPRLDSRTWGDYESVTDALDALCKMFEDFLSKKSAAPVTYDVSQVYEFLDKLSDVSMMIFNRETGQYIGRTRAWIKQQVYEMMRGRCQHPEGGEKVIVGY

ERH-2 (C. elegans) [2] = molecular target: T1, ERH-2 (C. elegans); test: condition: 1-2 mM in the syringe, 30-50 μM in the cell; ITC; MicroCal ITC200, 25 °C; 20 mM Tris pH 8.5, 200 mM NaCl or 20 mM MES pH 6.5, 200 mM NaCl; 1-2 mM protein or peptide in the syringe titrated into 30-50 μM protein in the cell; one-site model; Kd mean ± SD of a minimum of two experiments; both purified
[3] = molecular target: T2, ERH-2^1-103-(Gly-Ser-Ser)6-TOST-1^34-54 (C. elegans) (UniProt Q20057+Q18490); test: condition: 1–2 mM in the syringe, 30–50 μM in the cell; ITC; MicroCal ITC200, 25 °C, 20 mM Tris pH 8.5, 200 mM NaCl or 20 mM MES pH 6.5, 200 mM NaCl; 1–2 mM in the syringe into 30–50 μM in the cell; one-site binding model; both purified
T2 sequence: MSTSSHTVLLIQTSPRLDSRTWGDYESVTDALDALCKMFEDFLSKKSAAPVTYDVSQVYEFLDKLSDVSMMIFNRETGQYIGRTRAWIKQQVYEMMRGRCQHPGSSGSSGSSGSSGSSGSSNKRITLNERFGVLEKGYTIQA

ERH-2 D67A (C. elegans) [4] = molecular target: T3, ERH-2 D67A (C. elegans) (UniProt Q20057); test: condition: 1-2 mM in the syringe, 30-50 μM in the cell; ITC; MicroCal ITC200, 25 °C; 20 mM Tris pH 8.5, 200 mM NaCl or 20 mM MES pH 6.5, 200 mM NaCl; 1-2 mM protein or peptide in the syringe titrated into 30-50 μM protein in the cell; one-site model; Kd mean ± SD of a minimum of two experiments; both purified
T3 sequence: T1 sequence with D67A

ERH-2 M38D (C. elegans) [5] = molecular target: T4, ERH-2 M38D (C. elegans) (UniProt Q20057); test: as above
T4 sequence: T1 sequence with M38D

[6] = molecular target: T5, ERH-2^1-103-(Gly-Ser-Ser)6-TOST-1^34-54 fusion protein (C. elegans) (UniProt Q20057+Q18490); test: as above
T5 sequence: T2 sequence

ERH-2 (C. elegans) [7] = molecular target: T1, ERH-2 (C. elegans); test: condition: 1–2 mM in the syringe, 30–50 μM in the cell; ITC; MicroCal ITC200, 25 °C, 20 mM Tris pH 8.5, 200 mM NaCl or 20 mM MES pH 6.5, 200 mM NaCl; 1–2 mM in the syringe into 30–50 μM in the cell; one-site binding model; both purified
ERH-2 D67A (C. elegans) [8] = molecular target: T3, ERH-2 D67A (C. elegans); test: as above
[9] = molecular target: PICS-1^RRM F217E (C. elegans) (UniProt O76616); test: SEC; wild type and F217E of PICS-1^RRM on HiLoad 16/600 Superdex 75, 20 mM Tris hydrochloride pH 8.5, 200 mM NaCl; both purified
[10] = molecular target: PICS-1^RRM F217E (C. elegans) (UniProt O76616); test: SEC; gel filtration of PICS-1^RRM wild type and F217E alone, HiLoad 16/600 Superdex 75; 20 mM Tris, 200 mM NaCl (pH 8.5 in the methods, pH 7.5 in the legend); both purified
ERH-2 M38D (C. elegans) [11] = molecular target: T4, ERH-2 M38D (C. elegans); test: condition: 1–2 mM in the syringe, 30–50 μM in the cell; ITC; MicroCal ITC200, 25 °C, 20 mM Tris pH 8.5, 200 mM NaCl or 20 mM MES pH 6.5, 200 mM NaCl; 1–2 mM in the syringe into 30–50 μM in the cell; one-site binding model; both purified

- binding [3]: no binding
B2: SUMO-fused PID-1^50-70 (domain or fragment, C. elegans, UniProt Q19541 50-70, looked up)
chain: TNLHRKVTLSDRFELAALGYE
notes: PID-1, C. elegans, residues 50-70; the results say it was fused to the C-terminus of SUMO; also called PID-1 fragment; source: E. coli BL21(DE3), purified (Ni-NTA); not shown: SUMO, N-terminal, kept

- binding (ERH-2 (C. elegans) [7]): no binding
Binder: EDIKDSVFKDDHAEEEPRGAD (domain or fragment, UniProt O76616 180-200) [SUMO-fused EBM V189D/L190D (PICS-1 residues 180-200)]

- binding (ERH-2 D67A (C. elegans) [8]): no binding
B6: SUMO-fused TOST-1^34-54 (domain or fragment, C. elegans, UniProt Q18490 34-54, looked up)
chain: NKRITLNERFGVLEKGYTIQA
notes: TOST-1, C. elegans, residues 34-54; Cloned into pET28-SUMO; also called TOST-1 fragment; source: E. coli BL21(DE3), purified (Ni-NTA); not shown: SUMO, N-terminal, kept

- binding (ERH-2 M38D (C. elegans) [11]): no binding
B8: SUMO-fused PICS-1 ERH-2 binding motif (EBM, residues 180-200) (domain or fragment, C. elegans, UniProt O76616 180-200, looked up)
chain: EDIKDSVFKVLHAEEEPRGAD
notes: Cloned into pET28-SUMO; the Kds are for the SUMO fusion protein; also called PICS-1^EBM; PICS-1^180-200; source: E. coli BL21(DE3), purified (Ni-NTA); not shown: SUMO, N-terminal, kept

- binding (ERH-2 (C. elegans) [7]): no binding
Binder: EDDKDSDFKVLHAEEEPRGAD (domain or fragment, UniProt O76616 180-200) [SUMO-fused EBM I182D/V186D (PICS-1 residues 180-200)]

- binding (ERH-2 (C. elegans) [7]): no binding
Binder: NKRITANERAGVLEKGYTIQA (domain or fragment, UniProt Q18490 34-54) [SUMO-fused TOST-1^34-54 L39A/F43A]

- binding (ERH-2 (C. elegans) [7]): no binding
Binder: NKRITLNECFGVLEKGYTIQA (domain or fragment, UniProt Q18490 34-54) [SUMO-fused TOST-1^34-54 R42C]

- binding (ERH-2 (C. elegans) [2]): no binding
Binder: NKRITLNECFGVLEKGYTIQA (domain or fragment, UniProt Q18490 34-54) [SUMO-TOST-1^34-54 R42C]

The remaining lines, values behind:

B1: PICS-1^5-282 with EBM deleted (domain or fragment, UniProt O76616)
chain: QKADFKSKWAMVVTVNNLNDKKRADLREFSEWFIETLRLEGAFIGHYFNYEAAPVTIVETLPGNFDSCTNAYQKIHKEHPQVVLVVHILPQSQSNEYEWMKVLASRYGFVRQGLLYDNCANRFQNVETDQNSVFRNMCQWIYRSGTAIVRNEGNACGILHGKDPKPTFDKVLFNSQENMLKISGYPGMLNTFGIAQLLTPYRVNGITITGAQSAVVALENKFQVYQAVQDFNGKKLDRNHKLQVSSLVVSSPAVPLE
- binding (ERH-2 (C. elegans) [1]): no binding

Binder: EDDKDSDFKVLHAEEEPRGAD (domain or fragment, UniProt O76616 180-200) [SUMO-PICS-1^180-200 I182D/V186D]
- binding (ERH-2 (C. elegans) [2]): no binding

B3: SUMO-TOST-1^34-54 (domain or fragment, C. elegans, UniProt Q18490 34-54, looked up)
chain: NKRITLNERFGVLEKGYTIQA
notes: TOST-1, C. elegans, residues 34-54; Fused to the C-terminus of SUMO (pET28-SUMO); the Kds are for the SUMO fusion; also called TOST-1 fragment; source: E. coli BL21(DE3), purified (Ni-NTA); not shown: SUMO, N-terminal, kept
- binding (ERH-2 D67A (C. elegans) [4]): no binding

B4: SUMO-PICS-1^180-200 (ERH-2 binding motif, EBM) (domain or fragment, C. elegans, UniProt O76616 180-200, looked up)
chain: EDIKDSVFKVLHAEEEPRGAD
notes: Fused to the C-terminus of SUMO (pET28-SUMO); the Kds are for the SUMO fusion; also called PICS-1EBM; source: E. coli BL21(DE3), purified (Ni-NTA); not shown: SUMO, N-terminal, kept
- binding (ERH-2 M38D (C. elegans) [5]): no binding

B5: SUMO-PID-1^50-70 (domain or fragment, C. elegans, UniProt Q19541 50-70, looked up)
chain: TNLHRKVTLSDRFELAALGYE
notes: PID-1, C. elegans, residues 50-70; Fused to the C-terminus of SUMO; the Kds are for the SUMO fusion; also called PID-1 fragment; source: E. coli BL21(DE3), purified (Ni-NTA); not shown: SUMO, N-terminal, kept
- binding (ERH-2 D67A (C. elegans) [4]): no binding
- binding [6]: no binding

B7: PICS-1^RRM F217E (domain or fragment, UniProt O76616 201-282)
chain: QENMLKISGYPGMLNTEGIAQLLTPYRVNGITITGAQSAVVALENKFQVYQAVQDFNGKKLDRNHKLQVSSLVVSSPAVPLE
- binding [9]: no binding
- binding [10]: no binding

Binder: NKRITANERAGVLEKGYTIQA (domain or fragment, UniProt Q18490 34-54) [SUMO-TOST-1^34-54 L39A/F43A]
- binding (ERH-2 (C. elegans) [2]): no binding

Binder: EDIKDSVFKDDHAEEEPRGAD (domain or fragment, UniProt O76616 180-200) [SUMO-PICS-1^180-200 V189D/L190D]
- binding (ERH-2 (C. elegans) [2]): no binding
